Laboratory results as given in PubChem BioAssay AID2662 (National Center for Advancing Translational Sciences (NCATS), 2010).
Out of some 290,000 compounds screened, about 110 (0.038%) were called active. Inconclusive means that the source gave no clear call. Such entries were picked first, then a sample of the others. Calls follow the shape of the dose curve; as a rule, active = well fitted inhibition curve with a large enough effect in the polarisation, with a control signal flat (not every such curve was filed as active); inconclusive = small, poorly fitted or top-dose-only effect, or effect the other way, or a change in a side signal; inactive = no such curve, though single readings can be large or run the other way; the % refers to the polarisation. Where the call is inconclusive, the potency comes from a doubtful curve fit. A note “side channel” means that the fit belongs to a control or component signal, not to the main read-out.

Chains of the proteins cited; added tags and fusions are not shown.
UniProt Q03164, whole entry, looked up: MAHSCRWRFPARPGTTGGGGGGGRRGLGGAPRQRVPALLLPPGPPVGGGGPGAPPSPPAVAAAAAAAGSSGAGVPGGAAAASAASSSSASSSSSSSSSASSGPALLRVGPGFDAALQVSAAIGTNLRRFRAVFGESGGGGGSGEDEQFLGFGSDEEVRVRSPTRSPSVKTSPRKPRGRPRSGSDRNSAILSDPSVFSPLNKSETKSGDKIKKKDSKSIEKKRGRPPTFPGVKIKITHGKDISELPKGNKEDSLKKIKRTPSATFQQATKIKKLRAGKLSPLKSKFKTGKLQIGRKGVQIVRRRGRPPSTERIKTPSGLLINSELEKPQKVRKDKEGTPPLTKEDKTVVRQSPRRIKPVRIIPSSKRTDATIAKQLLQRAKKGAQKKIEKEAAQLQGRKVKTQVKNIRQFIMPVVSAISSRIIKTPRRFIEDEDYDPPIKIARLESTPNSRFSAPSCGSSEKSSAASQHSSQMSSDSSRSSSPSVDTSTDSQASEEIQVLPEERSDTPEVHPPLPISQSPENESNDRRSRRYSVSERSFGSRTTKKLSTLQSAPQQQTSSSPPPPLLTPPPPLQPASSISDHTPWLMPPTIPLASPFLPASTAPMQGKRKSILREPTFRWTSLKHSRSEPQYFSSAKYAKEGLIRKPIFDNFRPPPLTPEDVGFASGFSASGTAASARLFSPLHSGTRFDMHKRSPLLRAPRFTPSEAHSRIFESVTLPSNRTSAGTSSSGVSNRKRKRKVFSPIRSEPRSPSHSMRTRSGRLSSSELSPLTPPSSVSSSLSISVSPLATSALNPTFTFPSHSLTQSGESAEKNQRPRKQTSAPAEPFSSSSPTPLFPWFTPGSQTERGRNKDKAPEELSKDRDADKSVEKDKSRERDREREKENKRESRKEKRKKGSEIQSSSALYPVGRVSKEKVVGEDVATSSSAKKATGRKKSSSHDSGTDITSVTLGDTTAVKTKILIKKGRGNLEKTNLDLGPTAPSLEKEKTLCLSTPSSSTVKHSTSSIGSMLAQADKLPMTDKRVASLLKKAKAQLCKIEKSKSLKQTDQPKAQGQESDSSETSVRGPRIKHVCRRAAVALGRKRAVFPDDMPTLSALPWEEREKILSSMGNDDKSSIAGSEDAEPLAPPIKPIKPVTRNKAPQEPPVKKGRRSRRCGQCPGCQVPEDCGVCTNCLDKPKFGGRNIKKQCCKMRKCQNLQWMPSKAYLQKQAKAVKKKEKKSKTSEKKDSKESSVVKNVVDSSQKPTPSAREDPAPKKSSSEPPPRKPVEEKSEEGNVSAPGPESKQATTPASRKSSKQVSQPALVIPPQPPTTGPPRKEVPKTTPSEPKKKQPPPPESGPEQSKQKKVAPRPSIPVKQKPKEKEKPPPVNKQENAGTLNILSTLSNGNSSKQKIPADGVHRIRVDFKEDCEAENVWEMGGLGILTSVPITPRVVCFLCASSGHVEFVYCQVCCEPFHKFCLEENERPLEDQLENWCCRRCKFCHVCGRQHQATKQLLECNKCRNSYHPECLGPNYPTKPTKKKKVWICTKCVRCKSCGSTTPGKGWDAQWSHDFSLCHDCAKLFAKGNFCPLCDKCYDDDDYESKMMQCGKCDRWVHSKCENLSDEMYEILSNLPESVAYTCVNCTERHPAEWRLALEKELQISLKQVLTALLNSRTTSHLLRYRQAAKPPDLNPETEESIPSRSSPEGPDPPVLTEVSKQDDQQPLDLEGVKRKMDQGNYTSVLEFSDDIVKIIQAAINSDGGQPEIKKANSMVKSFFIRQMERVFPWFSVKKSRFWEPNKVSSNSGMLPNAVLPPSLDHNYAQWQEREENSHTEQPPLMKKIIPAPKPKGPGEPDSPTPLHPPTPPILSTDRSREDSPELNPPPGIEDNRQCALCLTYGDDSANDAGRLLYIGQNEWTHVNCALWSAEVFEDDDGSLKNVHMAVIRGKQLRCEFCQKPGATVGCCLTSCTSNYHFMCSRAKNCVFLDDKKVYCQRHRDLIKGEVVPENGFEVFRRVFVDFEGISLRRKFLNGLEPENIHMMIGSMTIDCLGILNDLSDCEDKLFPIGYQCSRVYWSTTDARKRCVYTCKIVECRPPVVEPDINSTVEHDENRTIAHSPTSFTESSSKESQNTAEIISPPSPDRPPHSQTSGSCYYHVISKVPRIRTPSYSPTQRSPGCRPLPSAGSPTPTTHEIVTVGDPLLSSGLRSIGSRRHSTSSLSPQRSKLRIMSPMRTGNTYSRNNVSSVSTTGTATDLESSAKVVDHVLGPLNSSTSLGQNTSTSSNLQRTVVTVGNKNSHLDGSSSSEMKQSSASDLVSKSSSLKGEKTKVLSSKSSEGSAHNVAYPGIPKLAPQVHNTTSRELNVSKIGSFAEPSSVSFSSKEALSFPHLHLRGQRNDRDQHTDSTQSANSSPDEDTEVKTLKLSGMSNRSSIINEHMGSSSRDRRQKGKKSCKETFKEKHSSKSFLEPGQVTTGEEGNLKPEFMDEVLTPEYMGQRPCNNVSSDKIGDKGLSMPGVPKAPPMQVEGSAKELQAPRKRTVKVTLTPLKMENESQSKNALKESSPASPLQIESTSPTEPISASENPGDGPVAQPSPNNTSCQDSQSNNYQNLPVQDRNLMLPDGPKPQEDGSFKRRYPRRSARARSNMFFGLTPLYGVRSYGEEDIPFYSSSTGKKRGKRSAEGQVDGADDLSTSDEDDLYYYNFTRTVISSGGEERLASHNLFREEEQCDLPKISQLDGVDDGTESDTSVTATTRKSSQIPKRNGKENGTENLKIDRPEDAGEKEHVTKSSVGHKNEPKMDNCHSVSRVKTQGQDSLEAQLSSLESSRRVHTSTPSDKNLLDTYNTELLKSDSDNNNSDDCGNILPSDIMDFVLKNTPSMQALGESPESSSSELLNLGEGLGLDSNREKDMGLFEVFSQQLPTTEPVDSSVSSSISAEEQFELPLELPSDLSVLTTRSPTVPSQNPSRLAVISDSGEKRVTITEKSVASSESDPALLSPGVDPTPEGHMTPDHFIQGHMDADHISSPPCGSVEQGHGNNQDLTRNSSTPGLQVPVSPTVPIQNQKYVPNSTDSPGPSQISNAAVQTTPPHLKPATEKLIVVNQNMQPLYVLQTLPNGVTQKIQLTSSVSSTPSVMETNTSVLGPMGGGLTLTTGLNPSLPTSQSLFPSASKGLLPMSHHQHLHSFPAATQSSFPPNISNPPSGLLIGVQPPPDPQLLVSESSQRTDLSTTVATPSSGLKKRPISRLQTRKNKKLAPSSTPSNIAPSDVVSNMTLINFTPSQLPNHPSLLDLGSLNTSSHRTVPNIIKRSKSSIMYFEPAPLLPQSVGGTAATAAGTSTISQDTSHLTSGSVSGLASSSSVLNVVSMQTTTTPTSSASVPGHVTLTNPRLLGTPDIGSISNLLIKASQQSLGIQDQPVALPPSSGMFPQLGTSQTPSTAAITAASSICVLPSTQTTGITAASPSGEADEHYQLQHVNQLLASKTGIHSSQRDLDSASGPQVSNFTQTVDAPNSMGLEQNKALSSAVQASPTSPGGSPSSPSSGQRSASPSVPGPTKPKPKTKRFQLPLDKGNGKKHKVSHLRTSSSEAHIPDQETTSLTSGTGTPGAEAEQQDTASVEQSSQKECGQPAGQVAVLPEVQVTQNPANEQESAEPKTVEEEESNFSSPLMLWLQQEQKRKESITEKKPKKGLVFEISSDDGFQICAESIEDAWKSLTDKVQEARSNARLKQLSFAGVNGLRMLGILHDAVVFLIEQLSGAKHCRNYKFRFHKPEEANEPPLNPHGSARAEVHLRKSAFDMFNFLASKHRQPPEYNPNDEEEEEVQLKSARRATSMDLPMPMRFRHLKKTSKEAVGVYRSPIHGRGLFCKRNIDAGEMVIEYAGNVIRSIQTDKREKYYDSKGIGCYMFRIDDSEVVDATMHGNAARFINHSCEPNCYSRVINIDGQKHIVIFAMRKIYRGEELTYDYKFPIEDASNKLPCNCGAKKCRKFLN

target: Histone-lysine N-methyltransferase 2A (Homo sapiens) (UniProt Q03164); assay: qHTS Fluorescence Polarization Assay for Inhibitors of MLL CXXC domain - DNA interaction; details: MLL-CXXC / FITC-HOXA9 DNA fluorescence polarization; series mostly up to 115 µM
Description: NIH Chemical Genomics Center [NCGC] NIH Molecular Libraries Probe Production centers Network [MLPCN] MLPCN Grant: DA027717-01A1 Assay Submitter (PI): John Bushweller NCGC Assay Overview: The MLL (Mixed Lineage Luekemia) gene is involved in chromosomal translocation that results in either acute lymphoid leukemia (ALL) or acute myeloid leukemia (AML). Chromasomal translocation of MLL gene is responsible for the fusion of N-terminal MLL to more than 60 different partner genes in frame. Many of the MLL partner genes contain transcription activation domains or function as transcriptional activators. Despite the heterogeneity of fusion partners, the N-terminus of MLL fusion proteins always consists of the N-terminal menin binding motif and the CXXC domain. The MLL-CXXC domain specifically recognizes unmethylated CpG sequences of the HOX-A gene. Disruption of the MLL-CXXC and HOX-A gene interaction leads to down regulation of HOX-A gene expression and may potentially reverse leukemogenesis. We have miniaturized and optimized an in-vitro assay to screen for inhibitors of the MLL-CXXC domain and HOX-A DNA interaction, which could have utility in MLL fusion leukemias.
The affinity purified MLL-CXXC domain, unlabeled HOX-A9 DNA strand, fluorescein (FLSN) labeled HOX-A9 DNA strand were kindly supplied by the laboratory of Dr. John Bushweller, University of Virginia. All reagents were stored in single use aliquots at -80C. Assay Reagents: Assay buffer: 50 mM TRIS-HCl pH 7.5, 50 mM NaCl, 1 mM DTT. Add 0.05% BSA prior to reaction setup. Assay Procedure: 1.Dispense 1 ul of a 7 uM MLL-CXXC solution prepared in assay buffer into column 1-48. 2.Transfer 23 nl of compounds and unlabeled HOX-A9 per well. 3.Incubate for 5 minutes at ambient. 4.Dispense 1ul of a 50 nM FLSN-HOX-A9 solution prepared in assay buffer into columns 1-48 5.Centrifuge for 30 seconds at 1000 RPM. 6.Incubate for 30 minutes at ambient. 7.Read using the Envision reader fluorescent polarization protocol.
Potency is read from the fitted curve at half-maximal effect.

Which Potency does the source give for `CC(C)N(C)CCOC(=O)C1COc2ccccc2O1` (centres undefined) here?
The Potency was “inactive”.

Which Potency does the source give for `CCN1C(=O)/C(=C/C2=Cc3ccccc3OC2C)SC1=S` (centres undefined) here?
The Potency was inconclusive: 35.5 µM [fluorescent, single point].

Which Potency does the source give for `C=C1CC2C=C(NC(C)=O)CC(C1)C2` (centres undefined) here?
Its Potency is “inactive”.

`COc1ccc(C(=O)NCCc2c[nH]c3ccc(OC)cc23)cc1` was tested. Which Potency did it give?
The Potency was inconclusive: 112 µM [fluorescent, side channel, partial curve].

Which Potency does the source give for `COc1cc(/C=C(\C#N)c2nc3ccc(C)cc3[nH]2)c([N+](=O)[O-])cc1OC` here?
Its Potency is “inactive”.

`COc1cccc(OCCCn2cc(/C=C3/C(=N)N4C=C(C)SC4=NC3=O)c3ccccc32)c1` was tested. Which Potency did it give?
Its Potency is inconclusive: 44.7 µM [fluorescent, side channel, single point].

How did the Potency turn out when `Cc1ccc2nc(SC(C)C(=O)N3CCOCC3)[nH]c2c1` (centres undefined) was run?
The Potency was inconclusive: 63.1 µM [fluorescent, side channel, single point].

With `CN(C)C(CNC(=O)c1coc2ccccc2c1=O)c1ccccc1` (centres undefined) as the compound, how does the Potency read?
The Potency was inconclusive: 10 µM [fluorescent, side channel, single point].

With `O=C(Cn1c(=O)oc2ccccc21)N1CCOCC1` as the compound, how does the Potency read?
Its Potency is “inactive”.

For `Cn1ccc(-c2ccccc2)n1`, which Potency is on record?
Its Potency is inconclusive: 15.8 µM [quencher, side channel, single point].

Which Potency does the source give for `COc1cccc(NC(=O)Nc2nnc(Cc3ccccc3F)s2)c1` here?
Its Potency is inconclusive: 31.6 µM [fluorescent, side channel, single point].

For `CCOc1ccccc1N(C(=O)c1snc(C(N)=O)c1N)C(C(=O)NC1CCCC1)c1cccs1` (centres undefined), which Potency is on record?
Its Potency is “inactive”.

Which Potency does the source give for `CC(=O)NCCC(=O)Nc1nc(-c2ccc3c(c2)OCCO3)cs1` here?
Its Potency is inconclusive: 14.1 µM [fluorescent, side channel, single point].

Which Potency does the source give for `CSc1ccc(/C=N/N2CCN(c3ccccc3)CC2)cc1` here?
The Potency was inconclusive: 89.1 µM [fluorescent, side channel, single point].

With `COc1ccc(S(=O)(=O)N2c3ccccc3NC(=O)CC2C)cc1` (centres undefined) as the compound, how does the Potency read?
The Potency was inconclusive: 10 µM [fluorescent, side channel, single point].

For `O=c1[nH]c(-c2ccccc2)c(-c2ccccc2)nc1[N+](=O)[O-]`, which Potency is on record?
The Potency was inconclusive: 1.41 µM [quencher, side channel, partial curve, poor fit].

How did the Potency turn out when `O=C(O)CN1C(=O)/C(=C\C(Br)=C\c2ccccc2)SC1=S` was run?
Its Potency is inconclusive: 5.62 µM [fluorescent, side channel, partial curve].

For `O=C(N=c1ccn(-c2nc3ccccc3nc2NS(=O)(=O)c2ccccc2)cc1)c1ccccc1Cl`, which Potency is on record?
The Potency was inconclusive: 44.7 µM [fluorescent, side channel, single point].

With `CN1CCN(CC(=O)Nc2ccc(Oc3ccccc3)cc2)CC1` as the compound, how does the Potency read?
The Potency was “inactive”.

`COc1cc(SC)ccc1C(=O)NCCOc1ccc(Cl)cc1` was tested. Which Potency did it give?
Its Potency is inconclusive: 14.1 µM [inhibitor, single point].

For `CCOC(=O)c1c(C)nc2cc(C)cc(C)n12`, which Potency is on record?
The Potency was inconclusive: 39.8 µM [fluorescent, side channel, single point].

How did the Potency turn out when `COC(=O)c1ccc(N2NC(=O)/C(=C/c3ccc(OC)c(OC)c3)C2=O)cc1` was run?
The Potency was inconclusive: 7.94 µM [inhibitor, partial curve].

For `O=C(c1ccc(F)cc1)c1cc2ccc(O)cc2oc1=O`, which Potency is on record?
The Potency was “inactive”.

Which Potency does the source give for `CCOc1ccc(N(Cc2cc3ccc(C)cc3[nH]c2=O)S(=O)(=O)c2ccccc2)cc1` here?
Its Potency is inconclusive: 1.58 µM [quencher, side channel, full curve, poor fit].

How did the Potency turn out when `CCN(C(=O)c1cc2cc(OC)ccc2oc1=O)c1cccc(C)c1` was run?
The Potency was inconclusive: 11.2 µM [quencher, side channel, full curve, poor fit].

How did the Potency turn out when `CCCC(=O)Nc1cc2c(cc1C(C)=O)OCCO2` was run?
Its Potency is inconclusive: 7.08 µM [inhibitor, full curve, poor fit].

With `CCCCNS(=O)(=O)c1ccc2nc(SCC(=O)Nc3ccccc3)[nH]c2c1` as the compound, how does the Potency read?
The Potency was “inactive”.

Which Potency does the source give for `CCCN1C(=O)/C(=C\C=C2\N(CC)c3ccccc3C2(C)C)SC1=S` here?
The Potency was inconclusive: 7.94 µM [fluorescent, side channel, full curve].

Which Potency does the source give for `Cc1cc(/C=C(\C#N)C(=O)Nc2ccccc2)c(C)n1-c1cccnc1` here?
Its Potency is inconclusive: 63.1 µM [inhibitor, single point].

Which Potency does the source give for `CNC[C@H](CC1CCCCC1)NC[C@H](Cc1ccccc1)NCCC12CC3CC(CC(C3)C1)C2` here?
Its Potency is inconclusive: 3.55 µM [quencher, side channel, full curve].

Which Potency does the source give for `O=C(NCCOC(=O)C1COc2ccccc2O1)C1COc2ccccc2O1` (centres undefined) here?
The Potency was “inactive”.

With `Cn1c(C(C#N)C2=C(Cl)C(=O)N(c3ccccc3)C2=O)nc2ccccc21` (centres undefined) as the compound, how does the Potency read?
The Potency was inconclusive: 14.1 µM [inhibitor, full curve].

`Cc1ccc(NC(=O)CSc2nnc(CNC(=O)c3ccccc3F)o2)cc1Cl` was tested. Which Potency did it give?
The Potency was inconclusive: 1.41 µM [fluorescent, side channel, full curve].

`CC[n+]1ccc(/C=C/c2ccc(N(C)C)cc2)c2ccccc21` was tested. Which Potency did it give?
Its Potency is inconclusive: 12.6 µM [quencher, side channel, partial curve].

How did the Potency turn out when `COc1ccc2[nH]c3c(N4CCN(Cc5ccc6c(c5)OCO6)CC4)ncnc3c2c1` was run?
The Potency was “inactive”.

For `COc1ccc(-c2cc(C(F)(F)F)c3c(N)c(C(=O)NCCSC)sc3n2)cc1`, which Potency is on record?
Its Potency is inconclusive: 31.6 µM [fluorescent, side channel, partial curve].

How did the Potency turn out when `COC(=O)c1sc(C(F)(F)F)c(-c2ccccc2)c1S(=O)(=O)N1CCCC1` was run?
Its Potency is inconclusive: 8.91 µM [inhibitor, single point].

With `COc1cccc(-c2ccc(NC(=O)C3CCCN(Cc4cnn(C(C)C)c4)C3)cc2)c1` (centres undefined) as the compound, how does the Potency read?
Its Potency is inconclusive: 44.7 µM [quencher, side channel, single point].

For `COc1cc(/C=C2/C(=O)NN(c3cccc(F)c3)C2=O)ccc1OC(=O)c1ccco1`, which Potency is on record?
The Potency was inconclusive: 44.7 µM [inhibitor, single point].
